Experimental data: PubChem BioAssay AID540276 (National Center for Advancing Translational Sciences (NCATS), 2011)
In all, about 300,000 compounds went through this assay and about 5,400 (1.8%) were called active. This list was built around the results that the source calls inconclusive (neither active nor inactive); the mix of calls is not that of the screen. The call rests on the fitted dose curve; tested in HEK293 cells. Where the call is inconclusive, the potency comes from a doubtful curve fit.
Potency means the concentration at half of the fitted maximal effect.

Experiment: qHTS for inhibitors of binding or entry into cells for Marburg Virus
Conditions: Marburg virus pseudotyped entry inhibition, cell reporter; series mostly up to 37.8 µM
With CCCN(CC1COc2ccccc2O1)C(=S)Nc1ccc(C)cc1 (centres undefined) the Potency was inconclusive: 3.98 µM [activator, partial curve, poor fit].
In the case of COc1ccccc1CNc1nc(-c2ccco2)nn1S(=O)(=O)c1ccc(C)cc1, the Potency is reported as “inactive”.
With COc1ccc(C2C(C#N)=C(N)Nc3onc(C(C)(C)C)c32)c(OC)c1 (centres undefined) the Potency was inconclusive: 25.1 µM [inhibitor, single point].
For O=C(/C=N/O)Nc1ccc2sc3ccccc3c2c1, the Potency was “inactive”.
In the case of Cc1ccc(C(=O)c2ccccc2C(=O)OCC(=O)Nc2cccc([N+](=O)[O-])c2)cc1, the Potency is reported as inconclusive: 20 µM [inhibitor, partial curve].
In the case of CCOC(=O)Cc1cnc(NC(=O)Cn2nnc(-c3ccc(OCC)cc3)n2)s1, the Potency is reported as inconclusive: 1.12 µM [activator, partial curve].
With Cc1ccccc1OCCn1c(=O)sc2ccccc21 the Potency was inconclusive: 0.562 µM [inhibitor, full curve, poor fit].
With CN1/C(=C/C2CC(=O)NC2=O)C(C)(C)c2ccccc21 (centres undefined) the Potency was “inactive”.
With O=C(c1cc(=O)c2ccccc2o1)N1CCN(c2ccccc2)CC1 the Potency was inconclusive: 31.6 µM [inhibitor, partial curve, poor fit].
For S=C(Nc1ccc(Br)cc1)NC1CCCC1, the Potency was “inactive”.
In the case of CCOC(=O)C1=C(C)NC(=S)NC1C (centres undefined), the Potency is reported as inconclusive: 31.6 µM [activator, single point].
With COC(=O)c1cc(Cl)ccc1NC(=O)Cn1c(C)cc(C)c(C#N)c1=O the Potency was inconclusive: 3.16 µM [inhibitor, single point].
In the case of COCC(C)Nc1ncnc2c1cnn2-c1ccc(Cl)cc1 (centres undefined), the Potency is reported as inconclusive: 15.8 µM [inhibitor, single point].
For CCc1cc2c(=O)c(-c3nc(C)cs3)coc2cc1O, the Potency was “inactive”.
With c1ccc2c(-c3c[nH]c4ccccc34)c3ccccc3nc2c1 the Potency was inconclusive: 17.8 µM [inhibitor, partial curve, poor fit].
For O=C(NC(=S)Nc1ccc(F)c([N+](=O)[O-])c1)c1ccccc1F, the Potency was inconclusive: 6.31 µM [inhibitor, partial curve, poor fit].
For Cn1c(C(=O)OC(C(=O)NC(C)(C)C)c2cccnc2)cc2sccc21 (centres undefined), the Potency was inconclusive: 17.8 µM [inhibitor, single point].
For Cc1ccccc1C(=O)O/N=C(\N)c1ccc([N+](=O)[O-])cc1, the Potency was inconclusive: 35.5 µM [inhibitor, single point].
In the case of CCOC(=O)c1ccc(NC(=O)COc2ccc(S(=O)(=O)N3CCCC3)cc2)cc1, the Potency is reported as inconclusive: 29.1 µM [inhibitor, single point].
